From article PMC2014788
No constants are given. Whether binding was seen depends on the method and setting. For some of these results: In cells and extracts the contact can be indirect. Some results given as binding are weak or reduced against the parent protein; the word gives no strength. For some of these results: Tags and fused reporters may be left off the sequences shown.

T1: AtRAD51 (Arabidopsis thaliana) (UniProt P94102)
T1 sequence (chain, radioactively labeled L-methionine incorporated): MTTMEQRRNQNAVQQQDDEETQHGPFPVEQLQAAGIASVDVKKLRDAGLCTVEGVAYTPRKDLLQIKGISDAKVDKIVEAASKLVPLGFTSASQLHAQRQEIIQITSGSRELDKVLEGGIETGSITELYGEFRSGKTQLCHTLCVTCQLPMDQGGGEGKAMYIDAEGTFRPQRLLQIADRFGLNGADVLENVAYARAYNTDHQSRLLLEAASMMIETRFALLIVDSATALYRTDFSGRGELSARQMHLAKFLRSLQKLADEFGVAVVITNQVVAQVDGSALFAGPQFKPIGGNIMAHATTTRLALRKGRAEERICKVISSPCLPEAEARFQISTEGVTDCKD

T2: AHP2 (Arabidopsis thaliana) (UniProt Q9FX64)
T2 sequence (chain, radioactively labeled L-methionine incorporated): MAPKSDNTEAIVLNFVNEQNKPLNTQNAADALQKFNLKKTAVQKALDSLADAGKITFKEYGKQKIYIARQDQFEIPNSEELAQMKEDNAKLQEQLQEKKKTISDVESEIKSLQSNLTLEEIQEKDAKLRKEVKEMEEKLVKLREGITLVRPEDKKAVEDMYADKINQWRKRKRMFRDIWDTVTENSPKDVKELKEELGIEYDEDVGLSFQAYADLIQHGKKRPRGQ

T3: AtDMC1 (Arabidopsis thaliana) (UniProt Q39009)
T3 sequence (chain, radioactively labeled L-methionine incorporated): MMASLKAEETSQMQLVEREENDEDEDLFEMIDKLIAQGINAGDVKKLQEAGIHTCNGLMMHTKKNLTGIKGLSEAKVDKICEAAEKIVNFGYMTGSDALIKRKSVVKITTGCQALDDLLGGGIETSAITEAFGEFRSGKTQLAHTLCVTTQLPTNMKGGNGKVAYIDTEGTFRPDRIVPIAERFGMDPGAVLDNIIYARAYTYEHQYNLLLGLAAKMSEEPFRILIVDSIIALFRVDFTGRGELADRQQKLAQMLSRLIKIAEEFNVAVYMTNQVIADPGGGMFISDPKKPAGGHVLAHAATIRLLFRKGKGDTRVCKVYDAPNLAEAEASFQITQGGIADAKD

B1: AtMND1 (protein, UniProt Q8GYD2 1-230)
chain: MSKKRGLSLEEKREKMLQIFYESQDFFLLKELEKMGPKKGVISQSVKDVIQSLVDDDLVAKDKIGISIYFWSLPSCAGNQLRSVRQKLESDLQGSNKRLAELVDQCEALKKGREESEERTEALTQLKDIEKKHKDLKNEMVQFADNDPATLEAKRNAIEVAHQSANRWTDNIFTLRQWCSNNFPQAKEQLEHLYTEAGITEDFDYIELSSFPLSSSHEADTAKQLVQDEA
modifications: radioactively labeled L-methionine incorporated
B2: AHP2 (protein, UniProt Q9FX64 1-226)
chain: T2 sequence (chain, radioactively labeled L-methionine incorporated)
modifications: radioactively labeled L-methionine incorporated
B3: AtMND1 (yeast two-hybrid fusion) (protein, UniProt Q8GYD2 1-230)
chain: B1 chain

Experiments:
[1] = target: T1, AtRAD51 (Arabidopsis thaliana); test: co-IP; proteins co-translated in vitro (TNT reticulocyte lysate) with radioactively labeled L-methionine; samples split and incubated 2 h at 4 °C with anti-c-myc (9E11) or anti-HA (12CA5) antibodies on Protein G Sepharose; NET2 buffer (150 mM NaCl, 50 mM Tris-Cl pH 7.4, 0.05% Igepal); 12% gel …
[2] = target: AtMND1 (Arabidopsis thaliana) (UniProt Q8GYD2); test: as above
[3] = target: T2, AHP2 (Arabidopsis thaliana); test: as above
[4] = target: T3, AtDMC1 (Arabidopsis thaliana); test: as above
[5] = target: AtMND1 (yeast two-hybrid fusion) (Arabidopsis thaliana) (UniProt Q8GYD2); test: two-hybrid; yeast two-hybrid assay, unpublished data

Row | Binder | binding [1] | binding [2] | binding [3] | binding [4] | binding [5]
1 | B1 | binds | binds | binds | binds | 
2 | B2 | binds |  |  | binds | 
3 | B3 |  |  |  |  | binds
